From publication PMC7206130
No constants are given. Whether binding was seen depends on the method and setting. Some binding calls cover weakened binding; strength is not graded here.

The chains behind the UniProt entries cited, without tags or fusion partners. Residues count along the entry.
UniProt P17931: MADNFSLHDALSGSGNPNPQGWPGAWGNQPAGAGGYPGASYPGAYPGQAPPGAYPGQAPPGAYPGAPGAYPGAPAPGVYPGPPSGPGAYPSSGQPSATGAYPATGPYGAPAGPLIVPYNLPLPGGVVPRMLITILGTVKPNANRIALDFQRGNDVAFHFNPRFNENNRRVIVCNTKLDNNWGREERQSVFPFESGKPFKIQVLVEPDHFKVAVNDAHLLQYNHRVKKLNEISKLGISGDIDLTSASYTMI
UniProt O00206, residues 24-631: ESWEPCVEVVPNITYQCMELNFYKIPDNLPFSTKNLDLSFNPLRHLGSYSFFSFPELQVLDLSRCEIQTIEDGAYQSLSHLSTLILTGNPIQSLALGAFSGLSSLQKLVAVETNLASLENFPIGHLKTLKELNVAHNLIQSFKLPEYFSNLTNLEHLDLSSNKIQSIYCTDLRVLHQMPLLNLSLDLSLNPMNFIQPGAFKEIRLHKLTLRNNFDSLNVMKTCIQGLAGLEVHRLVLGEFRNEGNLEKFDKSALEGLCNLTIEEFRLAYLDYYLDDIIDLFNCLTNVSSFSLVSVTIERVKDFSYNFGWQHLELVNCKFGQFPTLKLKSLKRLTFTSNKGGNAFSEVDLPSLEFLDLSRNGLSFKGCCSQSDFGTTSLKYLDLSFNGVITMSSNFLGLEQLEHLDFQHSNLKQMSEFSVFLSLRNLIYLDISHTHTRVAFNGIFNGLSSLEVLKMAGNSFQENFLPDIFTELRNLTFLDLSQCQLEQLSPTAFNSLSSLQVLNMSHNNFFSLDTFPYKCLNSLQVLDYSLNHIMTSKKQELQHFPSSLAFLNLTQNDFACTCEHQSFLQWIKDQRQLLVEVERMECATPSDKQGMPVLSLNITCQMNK

Target: recombinant human Gal-3 protein (human) (UniProt P17931)
Test: co-IP; recombinant human Gal-3 (0.6 μg) mixed with recombinant human TLR4 or TREM2 (0.6 μg each) in RIPA buffer; precipitated with rat anti-Gal-3 antibody at 4 °C overnight, protein G Mag Sepharose Xtra beads; rat IgG as control; both purified

- binding: binds
Substance: recombinant human TLR4 protein (from UniProt O00206 24-631) (receptor)
